According to patent publication US20240343799A1:
No constants are given. Whether binding was seen depends on the method and setting. Some results given as binding are weak or reduced against the parent protein; the word gives no strength.

By UniProt entry, the sequences of proteins in these tests, tags left out. Where a name states a change or a piece, a line headed by the entry shows the natural chain unless it says otherwise. Residues count along the entry.
UniProt P40259: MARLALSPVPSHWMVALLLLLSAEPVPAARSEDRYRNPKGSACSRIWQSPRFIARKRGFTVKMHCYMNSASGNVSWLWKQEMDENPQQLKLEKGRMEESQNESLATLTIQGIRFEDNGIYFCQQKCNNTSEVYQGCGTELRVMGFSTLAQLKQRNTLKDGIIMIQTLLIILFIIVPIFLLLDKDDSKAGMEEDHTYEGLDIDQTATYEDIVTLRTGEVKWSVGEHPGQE
CD79b on the surface of B-cell non-Hodgkin's lymphoma cells: residues 29-229 of P40259
human CD79b (recombinant antigen in the ForteBio assays): residues 29-159 of P40259

B1: hz11G10.9.p1 (antibody, V domains shown)
VH: QVQLVQSGAEVKKPGASVKVSCKASGYTFTDYWVNWVRQAPGQGLEWMGMIDPSDSETHYNQMFNDRVTMTVDTSTSTVYMELSSLRSEDTAVYYCTRSNYYWGQGTLVTVSS
VL: DIVMTQTPLSLSVTPGQPASISCKSSQSLLDSEGKTYLNWLLQKPGQSPQSLIYLVSKLDSGVPDRFSGSGSGTDFTLKISRVEAEDVGVYYCWQGTHFPLTFGGGTKVEIK
B2: hz38D9B3.11 (antibody, V domains shown)
VH: QVQLVQSGSELKKPGASVKVSCKASGYTFTDYSMHWVRQAPGQGLEWMGWINTETGEPSYADDFKGRFVFSLDTSVSTAYLQISSLKAEDTAVYYCYYGPYWGQGTLVTVSS
VL: EIVLTQSPATLSLSPGERATLSCKASQSVDHDVDSYMDWYQQKPGQAPRLLIYSASNLESGIPARFSGSGSGTDFTLTISSLEPEDFAVYYCQQINEYPYTFGGGTKVEIK
B3: hz34F1.14 (antibody, V domains shown)
VH: QVQLVQSGAEVKKPGASVKVSCKASGYSFTTYWMNWVRQAPGQGLTWMGMIDPSDSETHYNHLFKDRVTMTVDKSTSTAYMELSSLRSEDTAVYYCTRAIGYWGQGTLVTVSS
VL: DVVMTQSPLSLPVTLGQPASISCKSSLSLLDSEGKTYLNWFQQRPGQSPRPLISLVSKLDSGVPDRFSGSGSGTDFTLKISRVEAEDVGVYYCWQGTHFPLTFGGGTKVEIK

Molecular target: CD79b on the surface of B-cell non-Hodgkin's lymphoma cells (human) (UniProt P40259)
Experiment: flow cytometry on Ramos cells, goat anti-human IgG PE

binding	Binder
binds	B1
binds	B2
binds	B3

Molecular target: human CD79b (recombinant antigen in the ForteBio assays) (human) (UniProt P40259)
Experiment: BLI (ForteBio)

binding	Binder
binds	B1
binds	B2
binds	B3

Molecular target: CD79b on the surface of B-cell non-Hodgkin's lymphoma cells (human) (UniProt P40259)
Experiment: flow cytometry on BJAB cells, goat anti-human IgG PE

binding	Binder
binds	B1
binds	B2
binds	B3
